Entries after “also recorded” stand apart in the source; their conditions may differ. For at least one compound, name, drawing or mass did not settle the structure.
Key:
[1] = tested on: Th17 differentiated CD4+ T cells; assay: IL-17 secretion of Th17 differentiated CD4+ T cells treated with retinoic acid; format: cell-based, mouse; conditions: Th17 differentiation, day 4, RA 500 nM, wild type vs Nr2f6-/- cells
[2] = tested on: NF-AT:AP-1 DNA binding; assay: EMSA of nuclear extracts from Th17 differentiated CD4+ T cells in the presence of RA; format: cell-based, mouse; conditions: RA 500 nM, wild type vs Nr2f6-/- Th17 cell nuclear extracts
[3] = target: T1, NR2F6 (Homo sapiens, UniProt P10588); assay: RARE containing renilla luciferase reporter assay in NR2F6 transfected Jurkat T cells; format: cell-based; conditions: RA at 20 microM, CD3/CD28 stimulation 16 hrs
T1 construct: expressed in transfected cells; host or cells: Jurkat T cells (transient electroporation)
T1 sequence (P10588 1-404): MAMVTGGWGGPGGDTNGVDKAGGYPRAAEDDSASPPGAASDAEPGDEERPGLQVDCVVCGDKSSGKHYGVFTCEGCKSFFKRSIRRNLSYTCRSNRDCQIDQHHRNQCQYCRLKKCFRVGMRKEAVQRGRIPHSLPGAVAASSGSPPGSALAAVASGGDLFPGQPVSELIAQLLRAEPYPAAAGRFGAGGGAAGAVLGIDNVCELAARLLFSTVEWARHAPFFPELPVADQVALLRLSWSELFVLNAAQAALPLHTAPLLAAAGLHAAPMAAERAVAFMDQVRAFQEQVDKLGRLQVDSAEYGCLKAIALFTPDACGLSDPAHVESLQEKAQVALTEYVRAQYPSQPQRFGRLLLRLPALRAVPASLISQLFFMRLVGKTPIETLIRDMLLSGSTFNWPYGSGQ
Experimental: Jurkat T cells were maintained in RPMI medium supplemented with 10% FCS (Life Technologies, Inc.). Transient transfection of cells was performed by electroporation in a BTX-T820 ElectroSquarePorator (ITC, Biotech, Heidelberg, Germany) apparatus using predetermined optimal conditions: 2×10^7 cells at 450 V/cm and 5 pulses of 99 msec. Optimix medium (Equibio, Kent, UK) was used for studies of promoter reporter gene expression. Reporter gene expression was measured in co-transfection assays using 15 μg of the NR2F6 wild type or mutant expression vectors and 5 μg of the RARE containing renilla luciferase reporter vector pTK-Renilla-Luc (Promega, Medison, Wi). After 24 hrs cells were stimulated with solid phase CD3 and CD28 antibodies with or without retinoic acid (RA at 20 microM) for 16 hrs, as indicated.

## CC1=C(/C=C/C(C)=C/C=C/C(C)=C/C(=O)O)C(C)(C)CCC1 [RA, retinoic acid]
[1]
  IL-17 secretion (RA-mediated immunosuppression): remain substantially resistant to RA-mediated immunosuppression; also recorded: significantly altered sensitivity towards RA treatment
[2]
  NFAT DNA binding (EMSA): abrogates NFAT DNA binding in wild type but not (or at least substantially less) in Nr2f6^−/− Th17 cells; also recorded: abrogates NFAT DNA binding in wild type but not in NR2F6^−/− Th17 cells
[3]
  agonism of NR2F6: low-affinity agonist of NR2F6

Source: patent US20110239311A1, “Agonists of NR2F6 For Immunosupression” (Medizinische Universitat Innsbruck, priority 2008, published 2011)
